Test results as given in PubChem BioAssay AID192 (DTP/NCI, 2004).
The list does not hold the whole screen: it gathers tests that were run many times, whatever their T/C, doses with no T/C, and many T/C values between a quarter and a half above the control. Further doses and runs are listed elsewhere. T/C: endpoint of the treated group in % of that of the vehicle group. Some doses have a count of surviving animals in place of a T/C: the source files T/C as zero there, which appears to mark a toxic dose or a test without result, not a measured value. Some doses without a T/C left all or most animals alive at the check, yet need not have been tolerated: the source hardly ever lists a survival T/C far under the control, and the zero likely stands for such cases as well. Counts of survivors are from the toxicity check (mostly the fifth day) where no day follows; animals may have died later. Schedules are NCI's codes, taken here to give the interval after Q, in days (D) or hours (H), and the number of doses after X. Some doses were run more than once; the values are given in rising order. Some structures stand for samples that the source files as different forms (salt, stereo form or complex); doses refer to the form tested. For survival time, this PubChem deposit counts one and a half times the control or more as active, and values a quarter to a half above the control carry no call in these data; other NCI protocols may use other cut-offs. Some T/C values are followed by the survivors on the day toxicity was checked, most often the fifth; without a count, all were alive then. Additions like (4×) say how often a value occurs here. Square brackets hold non-standard residues; d marks the D form. Peptide text beside a SMILES is read from it. * marks the point of attachment. ξ: configuration not given here. Cbz = O=C(OCc1ccccc1)*; ξV = CC(C)C(N)C(=O)O; Sar = CNCC(=O)O

Tested on: BDF1 mice, B16 melanoma ip, median survival T/C
Assay: NCI In Vivo Anticancer Drug Screen. Data for tumor model B16 Melanoma (intraperitoneal) in B6D2F1 (BDF1) mice
Details: T/C endpoint: median survival time, higher T/C = longer survival
Method: The antitumor activity of compounds was measured in mice bearing transplantable tumors. Survival or tumor size were measured and the results are expressed as the measurement made in the treated group (T) divided by the measurement made in the vehicle treated control group (C). The tumor model used in this assay is B16 Melanoma (intraperitoneal) in B6D2F1 (BDF1) mice

[1] = dose: 6.25 mg/kg/injection, schedule: Q01DX009 (ip), vehicle: Klucel (hydroxypropylcellulose) (HPC)
[2] = dose: 12.5 mg/kg/injection, schedule: Q01DX009 (ip), vehicle: Klucel (hydroxypropylcellulose) (HPC)
[3] = dose: 25.0 mg/kg/injection, schedule: Q01DX009 (ip), vehicle: Klucel (hydroxypropylcellulose) (HPC)
[4] = dose: 200.0 mg/kg/injection, schedule: Q01DX009 (ip), vehicle: Klucel (hydroxypropylcellulose) (HPC)
[5] = dose: 6.25 mg/kg/injection, schedule: Q01DX009 (ip), vehicle: saline with Tween-80
[6] = dose: 12.5 mg/kg/injection, schedule: Q01DX009 (ip), vehicle: saline with Tween-80
[7] = dose: 25.0 mg/kg/injection, schedule: Q01DX009 (ip), vehicle: saline with Tween-80
[8] = dose: 50.0 mg/kg/injection, schedule: Q01DX009 (ip), vehicle: saline with Tween-80
[9] = dose: 100.0 mg/kg/injection, schedule: Q01DX009 (ip), vehicle: saline with Tween-80
[10] = dose: 200.0 mg/kg/injection, schedule: Q01DX009 (ip), vehicle: saline with Tween-80
[11] = dose: 400.0 mg/kg/injection, schedule: Q01DX009 (ip), vehicle: saline with Tween-80
[12] = dose: 50.0 mg/kg/injection, schedule: Q01DX009 (ip), vehicle: Klucel (hydroxypropylcellulose) (HPC)
[13] = dose: 100.0 mg/kg/injection, schedule: Q01DX009 (ip), vehicle: Klucel (hydroxypropylcellulose) (HPC)
[14] = dose: 0.12 mg/kg/injection, schedule: Q01DX009 (ip), vehicle: saline
[15] = dose: 0.25 mg/kg/injection, schedule: Q01DX009 (ip), vehicle: saline
[16] = dose: 0.5 mg/kg/injection, schedule: Q01DX009 (ip), vehicle: saline
[17] = dose: 1.0 mg/kg/injection, schedule: Q01DX009 (ip), vehicle: saline
[18] = dose: 2.0 mg/kg/injection, schedule: Q01DX009 (ip), vehicle: saline
[19] = dose: 4.0 mg/kg/injection, schedule: Q01DX009 (ip), vehicle: saline
[20] = dose: 100.0 mg/kg/injection, schedule: Q01DX009 (ip), vehicle: saline
[21] = dose: 200.0 mg/kg/injection, schedule: Q01DX009 (ip), vehicle: saline
[22] = dose: 400.0 mg/kg/injection, schedule: Q01DX009 (ip), vehicle: saline
[23] = dose: 400.0 mg/kg/injection, schedule: Q01DX009 (ip), vehicle: Klucel (hydroxypropylcellulose) (HPC)

For O=C(CCCN1CCC(O)(c2cccc(C(F)(F)F)c2)CC1)c1ccc(F)cc1, the survivor count (dose: 0.09 mg/kg/injection, schedule: Q01DX009 (ip), vehicle: Klucel (hydroxypropylcellulose) (HPC)) was 10 of 10, the survivor count (dose: 1.56 mg/kg/injection, schedule: Q01DX009 (ip), vehicle: Klucel (hydroxypropylcellulose) (HPC)) was 9 of 10 and the survivor count (dose: 3.12 mg/kg/injection, schedule: Q01DX009 (ip), vehicle: Klucel (hydroxypropylcellulose) (HPC)) was 9 of 10. The survivor count [1] was 10 of 10, the survivor count [2] was 7 of 10 and the survivor count (dose: 16.0 mg/kg/injection, schedule: Q01DX009 (ip), vehicle: Klucel (hydroxypropylcellulose) (HPC)) was 0 of 10. For the same molecule, the survivor count [3] was 0 of 10, the survivor count (dose: 32.0 mg/kg/injection, schedule: Q01DX009 (ip), vehicle: Klucel (hydroxypropylcellulose) (HPC)) was 0 of 10 and the survivor count (dose: 64.0 mg/kg/injection, schedule: Q01DX009 (ip), vehicle: Klucel (hydroxypropylcellulose) (HPC)) was 0 of 10.
With CN(C)C(C#N)C(=O)c1ccccc1 (stereo not drawn) the survivor count [4] was 0 of 10.
In the case of CCC[CH2][Hg][Cl], the survivor count (dose: 3.0 mg/kg/injection, schedule: Q01DX009 (ip), vehicle: saline with Tween-80) is reported as 10 of 10, the survivor count [5] is reported as 10 of 10 and the survivor count [6] is reported as 10 of 10. The survivor count [7] was 5 of 10 and the survivor count [8] was 0 of 10.
With COc1ccccc1NC(=O)Nc1cccc(Cl)c1 the survivor count [9] was 10 of 10, the survivor count [10] was 10 of 10 and the survivor count [11] was 10 of 10.
With COc1ccc(C2=CC(=O)N(C(C)C)C2=O)cc1 the T/C (dose: 160.0 mg/kg/injection, schedule: Q04DX003 (ip), vehicle: saline with Tween-80) was 139 % of control.
For COC12C(COC(=O)NCCO)C3=C(C(=O)C(C)=C(N)C3=O)N1CC1NC12 (stereo not drawn), the T/C [1] was 131 (2×) and 147 % of control, the T/C [2] was 159, 166, 167, 189 % of control and the T/C (dose: 12.5 mg/kg/injection, schedule: Q01DX009 (ip), vehicle: saline) was 145 % of control. The survivor count [12] was 10 of 10, the survivor count (dose: 50.0 mg/kg/injection, schedule: Q01DX009 (ip), vehicle: saline) was 10 of 10 and the survivor count [13] was 8 of 10.
In the case of COC(COC(N)=O)C1=C(N2CC2)C(=O)C(C)=C(N2CC2)C1=O (stereo not drawn), the T/C (dose: 0.06 mg/kg/injection, schedule: Q01DX009 (ip), vehicle: saline) is reported as 130 % of control [9 of 10 alive], the T/C [14] is reported as 141 % of control and the survivor count [14] is reported as 10 of 10. For the same molecule, the T/C [15] was 145 % of control, the survivor count [15] was 6 of 10 and the survivor count [16] was 10 of 10. The survivor count [17] was 9 of 10 and 10 of 10 and the survivor count [18] was 9 of 10.
For COc1ccc(S(=O)O)cc1NC(C)=O, the survivor count (dose: 50.0 mg/kg/injection, schedule: Q04DX003 (ip), vehicle: Klucel (hydroxypropylcellulose) (HPC)) was 9 of 10 and the survivor count (dose: 200.0 mg/kg/injection, schedule: Q04DX003 (ip), vehicle: Klucel (hydroxypropylcellulose) (HPC)) was 10 of 10.
O=C1NC(=O)/C(=C/C=C/c2ccccc2)S1 was tested, and the survivor count [10] was 10 of 10 and the survivor count [11] was 9 of 9.
CCCCCCCCCCCC[N+](C)(C)CCCCCCCCCCCC was tested, and the survivor count [19] was 10 of 10 and the survivor count (dose: 16.0 mg/kg/injection, schedule: Q01DX009 (ip), vehicle: saline) was 9 of 10.
In the case of O=C1C2(Cl)C3(Cl)C4(Cl)C(Cl)(Cl)C5(Cl)[C@]3(Cl)C1(Cl)[C@]5(Cl)C24Cl (stereo partly drawn), the T/C [6] is reported as 137 % of control, the survivor count [7] is reported as 10 of 10 and the survivor count [12] is reported as 10 of 10. The survivor count [8] was 8 of 10 and the survivor count [13] was 4 of 10.
In the case of CC(C)C(NC(=O)CN(C)C(=O)OCc1ccccc1)C(=O)O (stereo not drawn) (Cbz-[Sar]-[ξV]-OH), the survivor count [20] is reported as 4 of 10, the survivor count [21] is reported as 0 of 10 and the survivor count [22] is reported as 0 of 10.
For c1ccc([C@H]2CN3CCSC3=N2)cc1, the T/C [16] was 86 [9 of 10 alive], 96 [9 of 10 alive], 100, 103, 104, 106, 109, 116 % of control, the survivor count (dose: 0.63 mg/kg/injection, schedule: Q01DX009 (ip), vehicle: saline) was 10 of 10 and the T/C [17] was 95, 95 [9 of 10 alive], 98 (2×), 99 [9 of 10 alive], 105 (2×), 108 % of control. For the same molecule, the survivor count (dose: 1.25 mg/kg/injection, schedule: Q01DX009 (ip), vehicle: saline) was 9 of 10, the T/C [18] was 90, 91, 95, 96, 102, 103, 109, 118 % of control and the survivor count (dose: 2.5 mg/kg/injection, schedule: Q01DX009 (ip), vehicle: saline) was 9 of 10. For the same molecule, the T/C [19] was 86 [8 of 10 alive], 92, 94 [9 of 10 alive], 95 [9 of 10 alive], 96, 105, 107, 123 % of control and the T/C (dose: 8.0 mg/kg/injection, schedule: Q01DX009 (ip), vehicle: saline) was 92, 93, 95 [9 of 10 alive], 99, 100 (2×), 103, 131 % of control.
With Cc1ccc(NC(=O)Nc2ccc(C)c(NC(=O)Nc3ccc(C)cc3C)c2)c(C)c1 the survivor count [23] was 10 of 10.
For OCC1OC(n2cnc3c(=S)nc[nH]c32)CC1O (stereo not drawn), the survivor count [4] was 10 of 10.
With CCCCCCCCCCCC(O)CCCC (stereo not drawn) the survivor count [3] was 10 of 10, the survivor count [12] was 10 of 10 and the survivor count [13] was 10 of 10. For the same molecule, the survivor count [4] was 10 of 10.
For Cc1cc(C)cc(OC(=O)/C=C/C(=O)Oc2cc(C)cc(C)c2)c1, the survivor count [10] was 10 of 10 and the survivor count [11] was 10 of 10.
With O=c1c(O)c(-c2ccc(O)c(O)c2)oc2cc(O)cc(O)c12 the survivor count (dose: 400.0 mg/kg/injection, schedule: Q02DX009 (ip), vehicle: saline with Tween-80) was 10 of 10, the survivor count (dose: 800.0 mg/kg/injection, schedule: Q02DX009 (ip), vehicle: saline with Tween-80) was 7 of 10 and the survivor count (dose: 1600.0 mg/kg/injection, schedule: Q02DX009 (ip), vehicle: saline with Tween-80) was 1 of 10.
CC(N)Cc1ccc2c(c1)OCO2 (stereo not drawn) was tested, and the survivor count [20] was 4 of 10, the survivor count [21] was 4 of 10 and the survivor count [22] was 0 of 10.
With NC(=S)N/N=C/c1ccc(C(F)(F)F)cn1 the survivor count (dose: 30.0 mg/kg/injection, schedule: Q01DX009 (ip), vehicle: Klucel (hydroxypropylcellulose) (HPC)) was 4 of 10 and the survivor count (dose: 45.0 mg/kg/injection, schedule: Q01DX009 (ip), vehicle: Klucel (hydroxypropylcellulose) (HPC)) was 1 of 10.
For CCCCCCCCCCCCCCCCCCNC(=O)N(CC)c1ccccc1, the survivor count [13] was 10 of 10, the survivor count [4] was 10 of 10 and the survivor count [23] was 10 of 10.
For Oc1ccc(/C=N\N=C\c2ccc(O)cc2)cc1, the survivor count [11] was 9 of 10.
COc1ccc(NC(=O)Oc2ccc(Cl)c(C)c2)cc1 was tested, and the T/C [9] was 125 % of control.
C=COCC(C)C (tested in a mixture with another compound) was tested, and the survivor count (dose: 3.13 mg/kg/injection, schedule: Q01DX009 (ip), vehicle: saline with Tween-80) was 10 of 10 and the survivor count [5] was 10 of 10.
